Measurements as given in publication PMC2708071 (Journal of medicinal chemistry, 2009).

System: 50 kinases
Assay: Millipore kinase profiler, panel of 50 kinases
Assay type: biochemical
Conditions: inhibitor 10 nM

CN[C@@H]1C[C@H]2O[C@@](C)([C@@H]1OC)n1c3ccccc3c3c4c(c5c6ccccc6n2c5c31)C(=O)NC4 [staurosporine]
number of the 50 kinases inhibited to below 85% activity (greater than 15% inhibition): more than half
